Test results from publication PMC2605266.
These are yes or no findings as the source states them, for the method shown. In cells and extracts the contact can be indirect. Some binding calls cover weakened binding; strength is not graded here. Tags and fused reporters may be left off the sequences shown.

Amino acid sequences for entries named in this document (tags omitted).
UniProt Q08850: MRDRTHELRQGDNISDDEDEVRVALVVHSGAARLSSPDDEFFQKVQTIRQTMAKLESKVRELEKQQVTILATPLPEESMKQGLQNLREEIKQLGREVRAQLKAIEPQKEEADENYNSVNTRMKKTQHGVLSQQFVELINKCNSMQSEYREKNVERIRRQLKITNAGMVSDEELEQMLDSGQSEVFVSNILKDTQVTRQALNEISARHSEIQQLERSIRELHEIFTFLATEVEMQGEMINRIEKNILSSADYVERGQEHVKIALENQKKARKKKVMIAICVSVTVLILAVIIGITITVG

Target: T1, N-terminal GST-SNAP23 fusion (pET41a) (UniProt O09044)
T1 sequence: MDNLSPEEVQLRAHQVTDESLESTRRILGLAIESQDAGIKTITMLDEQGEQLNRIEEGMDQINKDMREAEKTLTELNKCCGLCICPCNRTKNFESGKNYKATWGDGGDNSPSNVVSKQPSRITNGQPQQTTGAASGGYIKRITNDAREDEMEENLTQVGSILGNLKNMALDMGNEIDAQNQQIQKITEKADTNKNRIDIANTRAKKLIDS
Test: pull-down; co-purification: syntaxin 4 (pQE30) and GST-SNAP23 (pET41a) co-expressed in BL21 DE3; lysate in A200 with 4% Triton on glutathione sepharose overnight at 4 C, washed, released with thrombin

binding: binds
Substance: syntaxin 4, entire coding sequence (pQE30) (from UniProt Q08850 1-298)
